Measured values published in patent US8263056B2, “Dyed-hair-binding peptides and peptide-based hair reagents for personal care” (E I du Pont de Nemours and Company, priority 2007, dated 2012).

Assay: Minitress procedure for evaluation of peptides for dye enhancement (color retention after shampoo cycles)
Set-up: species or system human
Settings: equivalent of 12 shampoo treatments, relative to dyed hair without peptide

## ssFAEAWSRAWPRAEVFFPSRGY (SSFAEAWSRAWPRAEVFFPSRGY; dye conjugate; Dyed-hair-bindg peptide) [Dye-24]
basic, pH 9.0, 2 mg/mL peptide
  Delta E difference: 3.74

## ssNYNYNYNYQYSsr (SSNYNYNYNYQYSSR; dye conjugate; flanking ss/Ssr residues; Dyed-hair-bindg peptide) [Dye-1]
acidic, pH 3.87, 0.4 mg/mL peptide
  Delta E difference: 14
acidic, pH 3.9, 0.4 mg/mL peptide
  Delta E difference: 8.75
basic, pH 8.9, 2 mg/mL peptide
  Delta E difference: 6.42
basic, pH 9.0, 2 mg/mL peptide
  Delta E difference: 6.8

## ssSFAYLVPDDGWLSsr (SSSFAYLVPDDGWLSSR; dye conjugate; flanking ss/Ssr residues; Dyed-hair-bindg peptide) [Dye-17]
basic, pH 8.75, 1 mg/mL peptide
  Delta E difference: 2.83

## ssYYYDYYQQDYSsr (SSYYYDYYQQDYSSR; dye conjugate; flanking ss/Ssr residues; Dyed-hair-bindg peptide) [Dye-26]
acidic, pH 4.2, 0.4 mg/mL peptide
  Delta E difference: 9.06
basic, pH 8.7, 2 mg/mL peptide
  Delta E difference: 5.08
basic, pH 9.0, 1 mg/mL peptide
  Delta E difference: 4.6
